In patent US6768043B2, “Das5, a P450 protein involved in the brassinosteroid biosynthesis pathway in plants” (The Salk Institute for Biological Studies, priority 2001, dated 2004) one finds content data, which are given here for 10 molecules.

Each structure is given as a SMILES string.

This data set in a line: Endogenous levels of brassinosteroid pathway intermediates in rosette leaves of transgenic/mutant Arabidopsis (HPLC purification, GC-MS selected ion analysis). Also on record: species or system Arabidopsis thaliana. The following applies: short day, 5 weeks.

Turning to `CC(C)[C@H](C)[C@@H](O)[C@H](O)[C@@H](C)[C@H]1CC[C@H]2[C@@H]3CC(=O)[C@H]4C[C@H](O)[C@H](O)C[C@]4(C)[C@H]3CC[C@]12C` [castasterone], the content is on record as 0.57 ng/g fw (Das5-D/WT Arabidopsis); 0.24 ng/g fw (WT Arabidopsis); 0.14 ng/g fw (das1-D/WT Arabidopsis); 0.11 ng/g fw (das1-D/det2 Arabidopsis); 0.17 ng/g fw (das5-D/det2 Arabidopsis); 0.04 ng/g fw (det2 mutant Arabidopsis).
On to `CC(C)[C@H](C)C[C@H](O)[C@@H](C)[C@H]1CC[C@H]2[C@@H]3CC(=O)[C@H]4C[C@@H](O)CC[C@]4(C)[C@H]3CC[C@]12C` [cathasterone], for which the content (Das5-D/WT Arabidopsis) amounted to 0.15 ng/g fw, the content (das1-D/det2 Arabidopsis) came out at 0.23 ng/g fw and the content (das5-D/det2 Arabidopsis) is given as 0.59 ng/g fw.
Take `C=C(CC[C@@H](C)[C@H]1CC[C@H]2[C@@H]3CC=C4C[C@@H](O)CC[C@]4(C)[C@H]3CC[C@]12C)C(C)C` [24-methylenecholesterol]: the content runs as follows: (Das5-D/WT Arabidopsis) 1400 ng/g fw; (WT Arabidopsis) 1880 ng/g fw; (das1-D/WT Arabidopsis) 2340 ng/g fw; (das1-D/det2 Arabidopsis) 480 ng/g fw; (das5-D/det2 Arabidopsis) 360 ng/g fw; (det2 mutant Arabidopsis) 480 ng/g fw.
With `CC(C)[C@H](C)CC[C@@H](C)[C@H]1CC[C@H]2[C@@H]3CC=C4C[C@@H](O)CC[C@]4(C)[C@H]3CC[C@]12C` [campesterol], the content is 24900 ng/g fw (Das5-D/WT Arabidopsis); 30000 ng/g fw (WT Arabidopsis); 13300 ng/g fw (das1-D/WT Arabidopsis); 9400 ng/g fw (das1-D/det2 Arabidopsis); 9900 ng/g fw (das5-D/det2 Arabidopsis); 9900 ng/g fw (det2 mutant Arabidopsis).
As to `CC(C)[C@H](C)[C@@H](O)[C@H](O)[C@@H](C)[C@H]1CC[C@H]2[C@@H]3CC[C@H]4C[C@H](O)[C@H](O)C[C@]4(C)[C@H]3CC[C@]12C` [6-deoxocastasterone], the content stood at 15.2 ng/g fw (Das5-D/WT Arabidopsis); 2.31 ng/g fw (WT Arabidopsis); 11.2 ng/g fw (das1-D/WT Arabidopsis); 0.06 ng/g fw (das1-D/det2 Arabidopsis); 0.09 ng/g fw (das5-D/det2 Arabidopsis); 0.01 ng/g fw (det2 mutant Arabidopsis).
Consider `CC(C)[C@H](C)[C@@H](O)[C@H](O)[C@@H](C)[C@H]1CC[C@H]2[C@@H]3CC[C@H]4C[C@H](O)CC[C@]4(C)[C@H]3CC[C@]12C` [6-deoxotyphasterol], for which the content by setting is: (Das5-D/WT Arabidopsis) 8.43 ng/g fw; (WT Arabidopsis) 1.59 ng/g fw; (das1-D/WT Arabidopsis) 4.61 ng/g fw; (das1-D/det2 Arabidopsis) 0.10 ng/g fw; (das5-D/det2 Arabidopsis) 0.15 ng/g fw; (det2 mutant Arabidopsis) 0.07 ng/g fw.
Regarding `CC(C)[C@H](C)CC[C@@H](C)[C@H]1CC[C@H]2[C@@H]3CC(=O)[C@H]4C[C@@H](O)CC[C@]4(C)[C@H]3CC[C@]12C` [6-oxocampestanol], the content came out at 33 ng/g fw (Das5-D/WT Arabidopsis); 59 ng/g fw (WT Arabidopsis); 24 ng/g fw (das1-D/WT Arabidopsis); 17 ng/g fw (das1-D/det2 Arabidopsis); 16 ng/g fw (das5-D/det2 Arabidopsis); 24 ng/g fw (det2 mutant Arabidopsis).
For `CC(C)[C@H](C)C[C@H](O)[C@@H](C)[C@H]1CC[C@H]2[C@@H]3CC[C@H]4C[C@@H](O)CC[C@]4(C)[C@H]3CC[C@]12C` [6-deoxocathasterone], the content is, setting by setting: (Das5-D/WT Arabidopsis) 32.0 ng/g fw; (WT Arabidopsis) 0.79 ng/g fw; (das1-D/WT Arabidopsis) 21.1 ng/g fw; (das1-D/det2 Arabidopsis) 0.08 ng/g fw; (das5-D/det2 Arabidopsis) 0.95 ng/g fw; (det2 mutant Arabidopsis) 0.23 ng/g fw.
As to `CC(C)[C@H](C)[C@@H](O)[C@H](O)[C@@H](C)[C@H]1CC[C@H]2[C@@H]3CC(=O)[C@H]4C[C@H](O)CC[C@]4(C)[C@H]3CC[C@]12C` [typhasterol], the content came out at 0.19 ng/g fw (Das5-D/WT Arabidopsis); 0.03 ng/g fw (WT Arabidopsis); 0.03 ng/g fw (das1-D/WT Arabidopsis); 0.53 ng/g fw (das1-D/det2 Arabidopsis); 0.80 ng/g fw (das5-D/det2 Arabidopsis); 0.39 ng/g fw (det2 mutant Arabidopsis).
Molecule `CC(C)[C@H](C)[C@@H](O)[C@H](O)[C@@H](C)[C@H]1CC[C@H]2[C@@H]3CC[C@H]4C[C@@H](O)CC[C@]4(C)[C@H]3CC[C@]12C` [6-deoxoteasterone] had a content (Das5-D/WT Arabidopsis) of 1.00 ng/g fw; a content (WT Arabidopsis) of 0.23 ng/g fw; a content (das1-D/WT Arabidopsis) of 0.57 ng/g fw; a content (das1-D/det2 Arabidopsis) of 0.20 ng/g fw; a content (das5-D/det2 Arabidopsis) of 0.64 ng/g fw; a content (det2 mutant Arabidopsis) of 0.28 ng/g fw.
